These results are taken from PMC4074974.

Chains of the proteins cited; added tags and fusions are not shown. Lines headed by an entry give the natural chain unless they say otherwise; changes in a name come on top.
UniProt Q9UQR0: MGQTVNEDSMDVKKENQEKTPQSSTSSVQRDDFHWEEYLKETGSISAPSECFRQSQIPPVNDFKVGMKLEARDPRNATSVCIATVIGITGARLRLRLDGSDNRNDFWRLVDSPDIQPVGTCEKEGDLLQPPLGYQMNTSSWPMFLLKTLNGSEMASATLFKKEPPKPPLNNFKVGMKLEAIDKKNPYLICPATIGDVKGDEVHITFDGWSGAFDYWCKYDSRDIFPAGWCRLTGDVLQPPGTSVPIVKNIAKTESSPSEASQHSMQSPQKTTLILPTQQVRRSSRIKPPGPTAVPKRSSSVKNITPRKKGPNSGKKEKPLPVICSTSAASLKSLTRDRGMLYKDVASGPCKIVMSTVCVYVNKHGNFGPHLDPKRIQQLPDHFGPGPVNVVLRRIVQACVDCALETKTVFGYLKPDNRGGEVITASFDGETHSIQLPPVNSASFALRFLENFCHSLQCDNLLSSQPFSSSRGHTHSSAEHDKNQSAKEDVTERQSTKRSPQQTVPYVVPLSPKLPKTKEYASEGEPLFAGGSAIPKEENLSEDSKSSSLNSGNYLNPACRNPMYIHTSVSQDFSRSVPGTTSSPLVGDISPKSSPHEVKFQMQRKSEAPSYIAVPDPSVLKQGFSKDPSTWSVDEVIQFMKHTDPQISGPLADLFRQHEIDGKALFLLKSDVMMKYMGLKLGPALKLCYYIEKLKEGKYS

This assay has as its target N3-SCML2A ΔRBR (FLAG-HA-Twin-Strep-tagged SCML2A lacking the RNA-binding region) (human) (UniProt Q9UQR0). Put plainly: pull-down; pull-down of epitope-tagged SCML2 from induced 293T-REx; input, flow-through and pull-down blotted for untagged SCML2.

These are yes or no findings as the source states them, for the method shown. In cells and extracts the contact can be indirect.

For the substance “SCML2 (endogenous, untagged; isoforms not told apart) (from UniProt Q9UQR0 1-700)”, the binding result is given as “no binding”.
